According to the supplement of paper PMC12823440, “Inhibitors supercharge kinase turnover through native proteolytic circuits” (Nature, 2025):
Structures can show the parent of a compound that is named as a salt. The list shows a part of the results. Hit calls seldom repeat between salt and free forms of one compound.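 In K562 cells expressing nanoluciferase-fused kinases, luminescence was recorded at 4 h intervals between 2 and 18 h, normalized as percent of control with DMSO at 100% and a positive control at 0%. A significant (2 sigma) signal drop marks a time point as decreased. The authors' rule for a hit is not shown and takes in more than the number of time points.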

Sequences of proteins named here, by UniProt entry; tags and fusion partners are left off. A change or cut given only in a name is not applied to a line headed by its entry.
UniProt Q15208: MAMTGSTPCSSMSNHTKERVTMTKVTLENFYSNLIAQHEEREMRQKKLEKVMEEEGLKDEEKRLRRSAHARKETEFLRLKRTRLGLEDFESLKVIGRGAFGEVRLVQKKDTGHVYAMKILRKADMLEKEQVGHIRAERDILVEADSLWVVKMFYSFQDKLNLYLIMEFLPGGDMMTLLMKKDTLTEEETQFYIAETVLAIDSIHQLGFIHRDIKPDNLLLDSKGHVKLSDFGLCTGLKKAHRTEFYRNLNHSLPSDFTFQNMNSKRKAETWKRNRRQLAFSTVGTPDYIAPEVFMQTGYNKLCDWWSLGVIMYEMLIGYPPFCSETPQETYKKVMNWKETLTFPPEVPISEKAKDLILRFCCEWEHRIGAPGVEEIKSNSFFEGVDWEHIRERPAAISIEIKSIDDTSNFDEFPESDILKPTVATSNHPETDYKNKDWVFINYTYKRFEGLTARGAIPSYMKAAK
UniProt P42680: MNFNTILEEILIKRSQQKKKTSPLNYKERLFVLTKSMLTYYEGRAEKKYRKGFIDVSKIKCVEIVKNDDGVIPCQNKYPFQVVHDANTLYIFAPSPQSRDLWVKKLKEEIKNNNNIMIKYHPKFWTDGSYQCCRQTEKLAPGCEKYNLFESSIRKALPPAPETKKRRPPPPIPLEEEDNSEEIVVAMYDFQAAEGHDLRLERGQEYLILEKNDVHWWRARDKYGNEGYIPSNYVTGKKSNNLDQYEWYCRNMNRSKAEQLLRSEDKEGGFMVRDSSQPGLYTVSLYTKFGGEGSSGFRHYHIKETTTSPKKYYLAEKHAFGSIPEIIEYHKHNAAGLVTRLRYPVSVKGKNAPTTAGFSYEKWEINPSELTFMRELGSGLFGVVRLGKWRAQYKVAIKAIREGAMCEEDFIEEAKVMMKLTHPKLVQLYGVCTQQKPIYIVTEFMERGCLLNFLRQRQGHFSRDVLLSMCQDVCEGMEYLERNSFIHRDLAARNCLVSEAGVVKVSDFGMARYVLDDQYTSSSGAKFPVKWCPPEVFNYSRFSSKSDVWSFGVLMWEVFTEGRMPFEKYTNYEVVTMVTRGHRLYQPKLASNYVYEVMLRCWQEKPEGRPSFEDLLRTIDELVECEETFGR
UniProt P29597: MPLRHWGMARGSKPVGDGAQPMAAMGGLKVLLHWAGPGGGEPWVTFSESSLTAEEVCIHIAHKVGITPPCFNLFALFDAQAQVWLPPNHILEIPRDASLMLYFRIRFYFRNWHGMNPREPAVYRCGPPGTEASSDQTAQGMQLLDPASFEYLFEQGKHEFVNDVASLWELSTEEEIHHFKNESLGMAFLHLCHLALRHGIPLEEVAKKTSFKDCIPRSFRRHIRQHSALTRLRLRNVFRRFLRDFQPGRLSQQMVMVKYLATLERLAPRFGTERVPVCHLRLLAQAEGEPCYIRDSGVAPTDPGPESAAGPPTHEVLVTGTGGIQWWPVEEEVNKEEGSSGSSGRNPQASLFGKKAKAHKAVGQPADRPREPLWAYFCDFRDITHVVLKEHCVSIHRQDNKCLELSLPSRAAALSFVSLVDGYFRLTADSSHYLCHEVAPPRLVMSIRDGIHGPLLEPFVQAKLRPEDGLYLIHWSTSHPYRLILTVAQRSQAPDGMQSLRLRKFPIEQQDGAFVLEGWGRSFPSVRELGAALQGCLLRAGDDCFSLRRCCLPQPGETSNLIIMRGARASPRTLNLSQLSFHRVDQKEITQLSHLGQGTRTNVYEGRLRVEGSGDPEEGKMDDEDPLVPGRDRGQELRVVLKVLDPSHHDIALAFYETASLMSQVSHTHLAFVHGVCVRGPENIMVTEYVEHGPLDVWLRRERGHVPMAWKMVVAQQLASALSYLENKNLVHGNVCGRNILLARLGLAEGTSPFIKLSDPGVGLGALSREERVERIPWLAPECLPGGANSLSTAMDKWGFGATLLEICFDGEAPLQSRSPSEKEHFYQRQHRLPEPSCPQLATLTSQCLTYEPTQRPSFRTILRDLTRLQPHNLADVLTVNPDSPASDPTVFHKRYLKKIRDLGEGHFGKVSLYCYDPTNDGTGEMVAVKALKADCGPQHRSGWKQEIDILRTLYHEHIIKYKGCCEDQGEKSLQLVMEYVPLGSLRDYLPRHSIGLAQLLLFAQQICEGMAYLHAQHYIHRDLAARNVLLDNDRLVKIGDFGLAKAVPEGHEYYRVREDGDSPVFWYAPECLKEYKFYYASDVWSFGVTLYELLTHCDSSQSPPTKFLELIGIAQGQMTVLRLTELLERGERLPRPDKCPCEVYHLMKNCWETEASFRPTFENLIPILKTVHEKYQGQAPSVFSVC
UniProt Q6PHR2: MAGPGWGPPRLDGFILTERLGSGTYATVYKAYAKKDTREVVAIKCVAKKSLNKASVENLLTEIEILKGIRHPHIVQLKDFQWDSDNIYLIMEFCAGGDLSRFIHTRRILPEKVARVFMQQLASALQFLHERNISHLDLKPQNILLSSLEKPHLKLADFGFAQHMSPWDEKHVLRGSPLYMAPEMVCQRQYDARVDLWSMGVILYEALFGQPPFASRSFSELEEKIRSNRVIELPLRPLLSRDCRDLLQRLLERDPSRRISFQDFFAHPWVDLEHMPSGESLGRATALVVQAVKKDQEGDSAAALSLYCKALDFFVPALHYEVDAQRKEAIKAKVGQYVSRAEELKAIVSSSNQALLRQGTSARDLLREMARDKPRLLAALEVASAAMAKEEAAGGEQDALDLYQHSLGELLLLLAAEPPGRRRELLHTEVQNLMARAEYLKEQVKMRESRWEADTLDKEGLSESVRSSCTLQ
UniProt P07947, whole entry, looked up: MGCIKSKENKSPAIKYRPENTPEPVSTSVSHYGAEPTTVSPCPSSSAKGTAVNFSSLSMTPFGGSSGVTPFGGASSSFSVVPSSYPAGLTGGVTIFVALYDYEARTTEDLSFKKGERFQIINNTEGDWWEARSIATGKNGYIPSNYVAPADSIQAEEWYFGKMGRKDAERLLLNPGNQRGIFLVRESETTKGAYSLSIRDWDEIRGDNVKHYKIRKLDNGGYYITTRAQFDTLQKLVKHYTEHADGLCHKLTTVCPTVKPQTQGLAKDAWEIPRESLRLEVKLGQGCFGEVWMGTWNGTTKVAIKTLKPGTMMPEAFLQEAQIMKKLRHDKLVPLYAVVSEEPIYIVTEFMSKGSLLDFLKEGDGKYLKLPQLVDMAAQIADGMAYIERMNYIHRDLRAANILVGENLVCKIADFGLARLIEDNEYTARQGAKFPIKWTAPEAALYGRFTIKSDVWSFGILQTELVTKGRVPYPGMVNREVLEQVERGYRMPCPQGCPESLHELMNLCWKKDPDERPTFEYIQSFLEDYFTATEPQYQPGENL
UniProt P43403: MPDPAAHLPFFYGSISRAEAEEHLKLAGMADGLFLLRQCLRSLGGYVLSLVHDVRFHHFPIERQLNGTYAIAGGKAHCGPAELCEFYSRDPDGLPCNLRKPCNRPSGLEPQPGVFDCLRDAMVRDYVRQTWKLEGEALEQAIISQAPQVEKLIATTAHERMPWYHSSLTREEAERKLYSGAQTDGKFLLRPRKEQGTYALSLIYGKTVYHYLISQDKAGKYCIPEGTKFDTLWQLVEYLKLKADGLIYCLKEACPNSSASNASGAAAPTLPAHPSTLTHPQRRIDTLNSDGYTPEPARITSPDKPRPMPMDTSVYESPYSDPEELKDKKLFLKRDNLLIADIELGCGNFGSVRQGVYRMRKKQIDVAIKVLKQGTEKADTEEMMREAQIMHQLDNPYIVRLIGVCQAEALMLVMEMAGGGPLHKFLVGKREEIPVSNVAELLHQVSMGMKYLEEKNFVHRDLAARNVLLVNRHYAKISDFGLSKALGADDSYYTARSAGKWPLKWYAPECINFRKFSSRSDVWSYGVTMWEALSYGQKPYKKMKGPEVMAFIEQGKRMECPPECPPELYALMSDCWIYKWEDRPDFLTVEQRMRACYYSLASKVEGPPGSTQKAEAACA
UniProt P00519, whole entry: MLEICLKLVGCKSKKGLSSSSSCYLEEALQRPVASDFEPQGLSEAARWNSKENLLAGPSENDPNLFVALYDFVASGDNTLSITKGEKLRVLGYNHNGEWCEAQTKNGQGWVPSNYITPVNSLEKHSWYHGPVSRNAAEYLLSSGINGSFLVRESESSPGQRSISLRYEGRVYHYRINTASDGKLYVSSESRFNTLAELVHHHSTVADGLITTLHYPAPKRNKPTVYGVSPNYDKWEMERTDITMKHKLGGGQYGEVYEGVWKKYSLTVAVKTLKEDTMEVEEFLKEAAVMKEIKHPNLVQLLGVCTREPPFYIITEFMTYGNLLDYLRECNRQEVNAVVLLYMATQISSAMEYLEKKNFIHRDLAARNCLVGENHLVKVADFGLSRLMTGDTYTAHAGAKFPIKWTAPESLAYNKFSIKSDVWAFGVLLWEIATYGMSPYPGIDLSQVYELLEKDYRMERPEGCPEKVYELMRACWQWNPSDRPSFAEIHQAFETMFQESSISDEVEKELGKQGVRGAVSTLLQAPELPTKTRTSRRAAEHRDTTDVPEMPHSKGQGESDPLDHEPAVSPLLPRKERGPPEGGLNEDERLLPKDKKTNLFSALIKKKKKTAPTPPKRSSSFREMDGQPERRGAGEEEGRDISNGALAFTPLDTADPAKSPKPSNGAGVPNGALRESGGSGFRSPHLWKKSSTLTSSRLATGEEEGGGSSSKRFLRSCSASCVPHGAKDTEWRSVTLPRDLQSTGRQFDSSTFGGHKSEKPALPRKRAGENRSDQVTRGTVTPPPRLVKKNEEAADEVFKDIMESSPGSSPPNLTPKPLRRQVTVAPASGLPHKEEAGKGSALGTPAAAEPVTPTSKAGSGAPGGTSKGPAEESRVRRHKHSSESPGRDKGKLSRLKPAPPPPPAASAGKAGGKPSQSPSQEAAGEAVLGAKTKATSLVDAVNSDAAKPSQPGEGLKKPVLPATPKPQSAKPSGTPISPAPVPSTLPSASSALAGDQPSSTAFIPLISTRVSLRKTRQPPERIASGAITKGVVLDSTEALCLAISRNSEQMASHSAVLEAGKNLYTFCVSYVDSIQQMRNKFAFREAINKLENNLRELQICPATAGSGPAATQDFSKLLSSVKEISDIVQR
UniProt P31749: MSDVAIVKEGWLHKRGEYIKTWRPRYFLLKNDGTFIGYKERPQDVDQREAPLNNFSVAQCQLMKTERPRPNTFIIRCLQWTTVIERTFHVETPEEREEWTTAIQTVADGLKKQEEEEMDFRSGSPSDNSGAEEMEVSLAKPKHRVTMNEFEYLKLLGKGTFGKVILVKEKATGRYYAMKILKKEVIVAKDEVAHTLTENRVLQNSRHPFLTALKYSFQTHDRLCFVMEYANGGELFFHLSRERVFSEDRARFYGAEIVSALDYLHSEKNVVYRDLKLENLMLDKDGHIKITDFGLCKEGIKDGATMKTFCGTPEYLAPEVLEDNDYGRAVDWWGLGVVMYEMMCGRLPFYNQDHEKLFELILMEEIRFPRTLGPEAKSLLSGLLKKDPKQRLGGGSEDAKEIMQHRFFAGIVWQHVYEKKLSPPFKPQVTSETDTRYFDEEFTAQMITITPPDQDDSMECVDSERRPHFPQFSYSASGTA

Assays:
Conditions in all cases: K562; 2-18 h
STK38 = STK38 (UniProt Q15208); experiment: kinase-Nluc reporter destabilization hit call (1 = scored as downregulated) (binary); higher = compound decreases kinase abundance
SYK = SYK (UniProt P43405); experiment: as above
TEC = TEC (UniProt P42680); experiment: as above
TYK2 = TYK2 (UniProt P29597); experiment: as above
ULK3 = ULK3 (UniProt Q6PHR2); experiment: as above
YES1 = YES1 (UniProt P07947); experiment: as above
ZAK = ZAK (UniProt Q9NYL2); experiment: as above
ZAP70 = ZAP70 (UniProt P43403); experiment: as above
ABL1 = ABL1 (UniProt P00519); experiment: number of time points (of 5) at which kinase-Nluc abundance scored as decreased, DMSO-normalised (count); higher = more persistent destabilization
AKT1 = AKT1 (UniProt P31749); experiment: as above

Row | SMILES | kinase-Nluc reporter destabilization hit call (STK38) | kinase-Nluc reporter destabilization hit call (SYK) | kinase-Nluc reporter destabilization hit call (TEC) | kinase-Nluc reporter destabilization hit call (TYK2) | kinase-Nluc reporter destabilization hit call (ULK3) | kinase-Nluc reporter destabilization hit call (YES1) | kinase-Nluc reporter destabilization hit call (ZAK) | kinase-Nluc reporter destabilization hit call (ZAP70) | number of time points (ABL1) | number of time points (AKT1)
1 | NC(=O)c1nc(Nc2ccccc2)sc1NC(=O)C1CCCCC1 (10 µM) | inactive: 0 | inactive: 0 | inactive: 0 | inactive: 0 | inactive: 0 | inactive: 0 | inactive: 0 | inactive: 0 | 0 | 0
2 | Cc1cc(Nc2ncnc3ccc(NC4=NC(C)(C)CO4)cc23)ccc1Oc1ccn2ncnc2c1 [Tucatinib (hemiethanolate)] (2.5 µM) | inactive: 0 | inactive: 0 | inactive: 0 | inactive: 0 | inactive: 0 | inactive: 0 | inactive: 0 | inactive: 0 | 0 | 0
3 | O=C(Nc1ccc(CN2CCOCC2)cc1)c1ccc(-c2cccc(Cl)c2)o1 (10 µM) | inactive: 0 | inactive: 0 | inactive: 0 | inactive: 0 | inactive: 0 | inactive: 0 | inactive: 0 | inactive: 0 | 4 | 0
4 | Cn1ncc(Cl)c1-c1cc(C(=O)N[C@H](CN)Cc2ccc(F)c(F)c2)oc1Cl [Uprosertib] (10 µM) | inactive: 0 | inactive: 0 | inactive: 0 | inactive: 0 | inactive: 0 | inactive: 0 | inactive: 0 | inactive: 0 | 0 | 0
5 | CC(=O)c1c(C)cc2cccc(O)c2c1O [Nepodin] (10 µM) | inactive: 0 | inactive: 0 | inactive: 0 | inactive: 0 | inactive: 0 | inactive: 0 | inactive: 0 | inactive: 0 | 0 | 0
6 | COc1cccc(OC)c1C(=O)OCc1cc(O)ccc1O[C@@H]1O[C@H](CO)[C@@H](O)[C@H](O)[C@H]1O [Curculigoside] (10 µM) | inactive: 0 | inactive: 0 | inactive: 0 | inactive: 0 | inactive: 0 | inactive: 0 | inactive: 0 | inactive: 0 | 0 | 0
7 | CNC(=O)c1cc(COc2nnc(Nc3ccc(Cl)cc3)c3ccoc23)ccn1 [Telatinib] (10 µM) | inactive: 0 | inactive: 0 | inactive: 0 | inactive: 0 | inactive: 0 | inactive: 0 | inactive: 0 | inactive: 0 | 0 | 0
8 | O=Nc1c(-c2c(O)[nH]c3ccc(I)cc23)[nH]c2ccccc12 [5-Iodo-indirubin-3'-monoxime] (10 µM) | inactive: 0 | inactive: 0 | inactive: 0 | inactive: 0 | inactive: 0 | inactive: 0 | inactive: 0 | inactive: 0 | 0 | 0
9 | CC1CCc2c(cc(Br)c(F)c2Br)N1C=O (stereo not given) (10 µM) | inactive: 0 | inactive: 0 | inactive: 0 | inactive: 0 | inactive: 0 | inactive: 0 | inactive: 0 | inactive: 0 | 0 | 0
10 | Cc1cccc(-c2[nH]ncc2-c2ccc(F)c(-c3cnn(CCO)c3)c2)n1 (10 µM) | inactive: 0 | inactive: 0 | inactive: 0 | inactive: 0 | inactive: 0 | inactive: 0 | inactive: 0 | inactive: 0 | 0 | 0
11 | NC(=O)c1nnc(N[C@@H]2CCCC[C@@H]2N)nc1Nc1cccc2cc[nH]c12 (10 µM) | inactive: 0 | inactive: 0 | inactive: 0 | inactive: 0 | inactive: 0 | inactive: 0 | inactive: 0 | inactive: 0 | 1 | 0
12 | CN1C(=O)N[C@H](Cc2c[nH]c3c(Cl)cccc23)C1=O [Necrostatin 2] (10 µM) | inactive: 0 | inactive: 0 | inactive: 0 | inactive: 0 | inactive: 0 | inactive: 0 | inactive: 0 | inactive: 0 | 0 | 0
13 | COc1ccc(Cl)c(Nc2nc3ccccc3nc2NS(=O)(=O)c2cccc(NC(=O)C(C)(C)N)c2)c1 [Pilaralisib] (10 µM) | inactive: 0 | inactive: 0 | inactive: 0 | inactive: 0 | inactive: 0 | inactive: 0 | inactive: 0 | inactive: 0 | 0 | 0
14 | CC(C)(O)CNc1ncc(-c2ccnc(Nc3ccnc(Cl)c3)n2)c(CC2CC2)n1 (2.5 µM) | inactive: 0 | inactive: 0 | inactive: 0 | inactive: 0 | inactive: 0 | inactive: 0 | inactive: 0 | inactive: 0 | 0 | 0
15 | CN1CCN(c2cnc3c(C4CCN(C(=O)c5ccc(OC(F)(F)F)cc5N)CC4)ncnc3c2)CC1 (10 µM) | inactive: 0 | inactive: 0 | inactive: 0 | inactive: 0 | inactive: 0 | inactive: 0 | inactive: 0 | inactive: 0 | 0 | 0
16 | C[C@H](c1ccnc(Nc2nc3ccc(-c4cc(N(C)C)ncn4)cc3[nH]2)c1)N1CCN(C(=O)CC(F)(F)F)CC1 (2.5 µM) | inactive: 0 | inactive: 0 | inactive: 0 | inactive: 0 | inactive: 0 | inactive: 0 | inactive: 0 | inactive: 0 | 0 | 0

Row | SMILES | kinase-Nluc reporter destabilization hit call (STK38) | kinase-Nluc reporter destabilization hit call (SYK) | kinase-Nluc reporter destabilization hit call (TEC) | kinase-Nluc reporter destabilization hit call (TYK2) | kinase-Nluc reporter destabilization hit call (ULK3) | kinase-Nluc reporter destabilization hit call (YES1) | kinase-Nluc reporter destabilization hit call (ZAK) | kinase-Nluc reporter destabilization hit call (ZAP70) | number of time points (ABL1) | number of time points (AKT1)
17 | COc1cc2ncc(-c3ccccc3)nc2cc1OC [Tyrphostin AG1296] (10 µM) | inactive: 0 | inactive: 0 | inactive: 0 | inactive: 0 | inactive: 0 | inactive: 0 | inactive: 0 | inactive: 0 | 0 | 0
18 | Cn1cnc(Cn2ccc3ccc(CNCc4[nH]c5ccccc5c4[C@H]4NC(=O)c5ccc(O)cc54)cc32)c1 (10 µM) | inactive: 0 | inactive: 0 | inactive: 0 | inactive: 0 | inactive: 0 | inactive: 0 | inactive: 0 | inactive: 0 | 0 | 0
19 | O=C(CSC1=NCCN1)NC1CCCCCC1 [ICCB-19 (hydrochloride)] (2.5 µM) | inactive: 0 | inactive: 0 | inactive: 0 | inactive: 0 | inactive: 0 | inactive: 0 | inactive: 0 | inactive: 0 | 0 | 0
20 | FC(F)c1nc2ccccc2n1-c1nc(N2CCOCC2)nc(N2CCOCC2)n1 (2 µM) | inactive: 0 | inactive: 0 | inactive: 0 | inactive: 0 | inactive: 0 | inactive: 0 | inactive: 0 | inactive: 0 | 3 | 0
21 | CNC(=O)c1c(F)cccc1Nc1nc(Nc2cc3c(cc2OC)CCN3C(=O)CN(C)C)nc2[nH]ccc12 (10 µM) | inactive: 0 | inactive: 0 | inactive: 0 | inactive: 0 | inactive: 0 | inactive: 0 | inactive: 0 | inactive: 0 | 0 | 0
22 | C=C(CC[C@@H](C(=O)O)[C@H]1[C@H](O)C[C@@]2(C)C3=C(CC[C@]12C)[C@@]1(C)CC[C@H](OC(C)=O)C(C)(C)[C@@H]1CC3)C(C)C [Pachymic acid] (10 µM) | inactive: 0 | inactive: 0 | inactive: 0 | inactive: 0 | inactive: 0 | inactive: 0 | inactive: 0 | inactive: 0 | 0 | 0
23 | O=C1NC(=O)/C(=C\c2cccc(C(F)(F)F)c2)S1 (2.5 µM) | inactive: 0 | inactive: 0 | inactive: 0 | inactive: 0 | inactive: 0 | inactive: 0 | inactive: 0 | inactive: 0 | 0 | 0
24 | NCCNS(=O)(=O)c1cccc2c(Cl)cccc12 [A-3 (hydrochloride)] (10 µM) | inactive: 0 | inactive: 0 | inactive: 0 | inactive: 0 | inactive: 0 | inactive: 0 | inactive: 0 | inactive: 0 | 0 | 0
25 | O=S(=O)(NCCCN1c2ccccc2CCc2ccc(Cl)cc21)c1ccc(OC(F)(F)F)cc1 (2.5 µM) | inactive: 0 | inactive: 0 | inactive: 0 | inactive: 0 | inactive: 0 | inactive: 0 | inactive: 0 | inactive: 0 | 0 | 0
26 | Cc1nc2sccn2c(=O)c1CCN1CCC(=C(c2ccccc2)c2ccc(F)cc2)CC1 (10 µM) | inactive: 0 | inactive: 0 | inactive: 0 | inactive: 0 | inactive: 0 | inactive: 0 | inactive: 0 | inactive: 0 | 0 | 0
27 | S=C(SSC(=S)N1CCOCC1)N1CCOCC1 (10 µM) | inactive: 0 | inactive: 0 | inactive: 0 | inactive: 0 | active: 1 | inactive: 0 | inactive: 0 | inactive: 0 | 3 | 0
28 | C=CC(=O)Nc1cccc(Nc2nc(Nc3ccc(N4CCN(C(C)=O)CC4)cc3OC)ncc2C(F)(F)F)c1 [Rociletinib hydrobromide] (10 µM) | inactive: 0 | inactive: 0 | inactive: 0 | inactive: 0 | inactive: 0 | inactive: 0 | inactive: 0 | inactive: 0 | 0 | 0
29 | Cc1ccc2cc(-c3c(C)ccc(C(=O)c4c(-c5ccccc5)n(C)n(-c5ccccc5)c4=O)c3N)ccc2n1 (2.5 µM) | inactive: 0 | inactive: 0 | inactive: 0 | inactive: 0 | inactive: 0 | inactive: 0 | inactive: 0 | inactive: 0 | 0 | 0
30 | CCCS(=O)(=O)Nc1ccc(F)c(C(=O)c2c[nH]c3ncc(-c4ccc(Cl)cc4)cc23)c1F [Vemurafenib] (10 µM) | inactive: 0 | inactive: 0 | inactive: 0 | inactive: 0 | inactive: 0 | inactive: 0 | inactive: 0 | inactive: 0 | 2 | 0
31 | Cc1ccc(C(=O)Nc2ccc(Oc3cc4cnn(C)c4cc3-c3cn[nH]c3)c(F)c2)c(=O)n1-c1ccc(F)cc1 [Merestinib dihydrochloride] (2.5 µM) | inactive: 0 | inactive: 0 | inactive: 0 | inactive: 0 | inactive: 0 | inactive: 0 | inactive: 0 | inactive: 0 | 0 | 0

2 successive entries already listed:
Row | SMILES | kinase-Nluc reporter destabilization hit call (STK38) | kinase-Nluc reporter destabilization hit call (SYK) | kinase-Nluc reporter destabilization hit call (TEC) | kinase-Nluc reporter destabilization hit call (TYK2) | kinase-Nluc reporter destabilization hit call (ULK3) | kinase-Nluc reporter destabilization hit call (YES1) | kinase-Nluc reporter destabilization hit call (ZAK) | kinase-Nluc reporter destabilization hit call (ZAP70) | number of time points (ABL1) | number of time points (AKT1)
17 | COc1cc2ncc(-c3ccccc3)nc2cc1OC [Tyrphostin AG1296] (10 µM) | inactive: 0 | inactive: 0 | inactive: 0 | inactive: 0 | inactive: 0 | inactive: 0 | inactive: 0 | inactive: 0 | 0 | 0
18 | Cn1cnc(Cn2ccc3ccc(CNCc4[nH]c5ccccc5c4[C@H]4NC(=O)c5ccc(O)cc54)cc32)c1 (10 µM) | inactive: 0 | inactive: 0 | inactive: 0 | inactive: 0 | inactive: 0 | inactive: 0 | inactive: 0 | inactive: 0 | 0 | 0
